Measurements from “University of Dundee, Small-Polar-MMV Screening Library” (2021), ChEMBL document CHEMBL3988442.

Each number is a percent effect as filed. The controls that fix the scale are not given in the record; negative values are as filed. Compounds were drawn at random from those tested, without regard to their results.

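Assay of Toxoplasma gondii numbers, read through their beta-galactosidase reporter with a colour substrate. Compounds at 50 µM. The record gives no direction; the compounds picked for IC50 retests had high values, so higher reads as fewer parasites. Of about 18,000 compounds tested this way, about 170 (0.94%) reached 50% or more in at least one test.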

structure	Percent Effect
NC(=O)C1CN(c2ccc3cccc(Br)c3n2)CCO1 (stereo unspecified)	-8.237
CCN1CCN(S(=O)(=O)c2cc(C)ccc2OC)CC1	17.39
Cc1ccsc1CN(CCN(C)C)C(=O)CN	-5.417
COC(=O)NC(C)C(=O)NCCNc1ncccc1C (stereo unspecified)	-1.35
O=C1CN(c2ncnc3c2cnn3CCO)CCN1	8.888
Cc1ccnc(N2CC(C)(O)C2)n1	-6.614
Cc1ccc(NC(=O)[C@H](C)N(C)C)cc1C	4.406
Cc1ccccc1C1(O)CCNC1 (stereo unspecified)	8.32
O=C(CC1(O)CCCCC1)NCC(O)c1ccsc1 (stereo unspecified)	-4.214
Cc1n[nH]c(C)c1CNC(=O)c1c(F)cc(F)cc1F	-1.634
Cc1ncn(CC(=O)N2CCN3CCCC3C2)c1C (stereo unspecified)	1.018
Cc1ccc(C(=O)NCC(c2ccco2)N(C)C)cn1 (stereo unspecified)	-4.475
COC(C)(C)C(=O)Nc1nccc(C)n1	-11.04
CCC(CC)(CN)C(=O)N1CCSCC1	-0.697
CCN(CC)c1ncccc1CNC(=O)C1CCOC1 (stereo unspecified)	-0.07643
COC(=O)c1oc(CN2CCC(CO)CC2)cc1C	-10.32
O=C1CC2(CCc3ccccc32)CN1 (stereo unspecified)	-16.31
Cc1nn(C)c2c1NC(=O)CO2	-1.678
CC1CN(C)CCN1Cc1nnnn1-c1ccccc1 (stereo unspecified)	-29.5
COCC(=O)NC1CCN(c2ccccc2)C1=O (stereo unspecified)	-2.401
CC(NC(=O)Cc1cccnc1)c1cn2ccsc2n1 (stereo unspecified)	4.225
NC(=O)N1CCC(C(=O)Nc2ccccn2)CC1	-10.12
CCOC(=O)N1CCN(C(=O)Cc2cccs2)CC1	8.521
CS(=O)(=O)CCNc1ccnc2ccc(Br)cc12	5.501
CSCCC(O)C(=O)NCCn1c(C)cc(C)nc1=O (stereo unspecified)	-6.322
CC(=O)N1CCC(C(=O)NCCc2sc(C)nc2C)C1 (stereo unspecified)	5.096
Cn1cc(CN2CCCC(CO)(CC3CC3)C2)cn1 (stereo unspecified)	-2.55
CC(=O)Nc1ccc(-n2nc(C)cc2C)nc1	3.492
O=C(NCC(=O)N1CCCC1)c1cc2ncccn2n1	-9.572
C=C(C)CS(=O)(=O)NC1CCN(c2ccccn2)C1 (stereo unspecified)	-4.433
O=C1CNc2cccc(F)c2N1	9.395
Cc1nnnn1CCC(=O)NC(C)Cn1cccn1 (stereo unspecified)	-10.73
O=C1CN(C(=O)c2cc3cccc(Br)c3o2)CCN1	-4.493
Cc1c[nH]c(CN(C)C(=O)CC2CN(C)CCN2C)n1 (stereo unspecified)	-2.057
CCOCCN(C)Cc1csnn1	-6.776
COc1ccc(CSCC(N)=O)cc1Br	-0.9562
CCCN1CCN(C(C)c2nc(C)no2)CC1 (stereo unspecified)	1.168
CC(C)(O)CSc1nnc(NCc2ccco2)s1	0.6586
Nc1ccsc1C(=O)N1CC[C@@H](N)[C@H](O)C1	-23.03
CC(C)n1ncc(C(=O)NCc2ccco2)c1N	-12.39
OCCc1cnn(-c2cccc(-n3cnnc3)c2)c1	-17.22
Nc1ccn(-c2ncccc2F)n1	7.653
COc1ccc2c(c1)C(=O)NC2	6.823
Cc1c(CN)cnn1C	-0.6129
Oc1cccc(C2CNCCO2)c1 (stereo unspecified)	-11.5
CCC(CN)CCO (stereo unspecified)	13.32
O=C(Cc1c[nH]c2ccccc12)N1CCCC(CO)C1 (stereo unspecified)	3.028
CCn1cc(Br)cc1C(=O)N1CCN(CC(C)O)CC1 (stereo unspecified)	0.2843

Some entries from above, unchanged:

{"structure": "CC(NC(=O)Cc1cccnc1)c1cn2ccsc2n1", "stereo": "stereo unspecified", "Percent Effect": 4.225}
{"structure": "Cc1ccsc1CN(CCN(C)C)C(=O)CN", "Percent Effect": -5.417}
{"structure": "COc1ccc2c(c1)C(=O)NC2", "Percent Effect": 6.823}